For 34 targets, log2 fold change results are on record in the supplement of paper PMC10849652.

The chains behind the UniProt entries cited, without tags or fusion partners. Where a name states a change or a piece, a line headed by the entry shows the natural chain unless it says otherwise.
UniProt Q13885, whole entry, looked up: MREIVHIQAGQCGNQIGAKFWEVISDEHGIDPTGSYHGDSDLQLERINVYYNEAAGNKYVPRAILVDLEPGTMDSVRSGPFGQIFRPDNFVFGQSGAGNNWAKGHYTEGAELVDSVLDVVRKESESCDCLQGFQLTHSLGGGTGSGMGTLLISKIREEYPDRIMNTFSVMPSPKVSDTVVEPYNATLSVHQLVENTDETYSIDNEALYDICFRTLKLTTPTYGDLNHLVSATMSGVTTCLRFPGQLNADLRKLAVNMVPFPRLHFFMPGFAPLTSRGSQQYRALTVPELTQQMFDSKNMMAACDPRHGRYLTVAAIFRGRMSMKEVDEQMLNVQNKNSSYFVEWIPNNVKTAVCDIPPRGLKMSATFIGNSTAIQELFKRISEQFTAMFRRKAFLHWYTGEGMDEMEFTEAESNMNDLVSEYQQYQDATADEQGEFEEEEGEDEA
UniProt P51668: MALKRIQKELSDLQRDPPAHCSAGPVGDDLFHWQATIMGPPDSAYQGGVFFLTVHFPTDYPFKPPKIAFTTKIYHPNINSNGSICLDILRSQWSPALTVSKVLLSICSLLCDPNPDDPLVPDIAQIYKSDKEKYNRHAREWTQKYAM
UniProt Q9NPG3, whole entry, looked up: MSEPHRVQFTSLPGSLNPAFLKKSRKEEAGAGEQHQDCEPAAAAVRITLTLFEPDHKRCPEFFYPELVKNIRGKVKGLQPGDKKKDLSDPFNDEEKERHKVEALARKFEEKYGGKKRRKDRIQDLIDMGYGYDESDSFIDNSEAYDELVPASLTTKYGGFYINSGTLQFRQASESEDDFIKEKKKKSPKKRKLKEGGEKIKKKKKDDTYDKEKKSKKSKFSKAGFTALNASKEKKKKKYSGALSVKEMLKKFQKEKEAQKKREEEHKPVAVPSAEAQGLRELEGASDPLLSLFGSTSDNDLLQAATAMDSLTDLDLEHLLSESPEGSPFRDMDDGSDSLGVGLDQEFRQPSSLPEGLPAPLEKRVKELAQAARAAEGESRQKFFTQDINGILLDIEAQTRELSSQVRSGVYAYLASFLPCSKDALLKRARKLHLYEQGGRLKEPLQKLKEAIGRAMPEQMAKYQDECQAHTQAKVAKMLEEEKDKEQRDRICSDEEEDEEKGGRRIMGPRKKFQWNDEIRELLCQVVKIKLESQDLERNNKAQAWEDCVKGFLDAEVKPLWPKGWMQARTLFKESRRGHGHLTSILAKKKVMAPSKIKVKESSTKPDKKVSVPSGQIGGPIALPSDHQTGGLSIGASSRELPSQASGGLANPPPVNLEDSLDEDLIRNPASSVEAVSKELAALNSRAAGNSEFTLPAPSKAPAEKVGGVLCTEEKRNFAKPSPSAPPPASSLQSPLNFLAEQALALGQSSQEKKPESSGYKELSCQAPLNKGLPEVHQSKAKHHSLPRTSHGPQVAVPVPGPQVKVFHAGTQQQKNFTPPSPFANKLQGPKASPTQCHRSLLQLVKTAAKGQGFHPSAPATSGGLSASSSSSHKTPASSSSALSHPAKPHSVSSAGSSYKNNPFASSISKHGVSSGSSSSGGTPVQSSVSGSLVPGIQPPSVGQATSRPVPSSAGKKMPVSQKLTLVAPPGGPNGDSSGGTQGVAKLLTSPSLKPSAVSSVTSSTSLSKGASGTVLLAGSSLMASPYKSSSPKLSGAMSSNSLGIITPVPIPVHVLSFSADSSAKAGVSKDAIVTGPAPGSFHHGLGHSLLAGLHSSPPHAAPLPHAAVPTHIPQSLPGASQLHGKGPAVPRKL
UniProt P0DPH7, whole entry, looked up: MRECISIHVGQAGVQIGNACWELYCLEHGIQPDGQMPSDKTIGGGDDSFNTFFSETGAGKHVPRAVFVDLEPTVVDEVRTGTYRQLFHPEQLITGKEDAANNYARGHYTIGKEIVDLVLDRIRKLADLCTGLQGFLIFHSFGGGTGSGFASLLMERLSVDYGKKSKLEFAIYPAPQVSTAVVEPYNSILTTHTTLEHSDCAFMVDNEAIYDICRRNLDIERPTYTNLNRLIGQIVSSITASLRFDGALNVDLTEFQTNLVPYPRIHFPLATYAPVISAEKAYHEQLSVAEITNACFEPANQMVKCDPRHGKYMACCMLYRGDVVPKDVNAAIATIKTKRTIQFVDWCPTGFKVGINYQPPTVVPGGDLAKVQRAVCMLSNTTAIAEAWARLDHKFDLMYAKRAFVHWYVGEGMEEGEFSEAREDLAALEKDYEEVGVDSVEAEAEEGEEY
UniProt Q96B02: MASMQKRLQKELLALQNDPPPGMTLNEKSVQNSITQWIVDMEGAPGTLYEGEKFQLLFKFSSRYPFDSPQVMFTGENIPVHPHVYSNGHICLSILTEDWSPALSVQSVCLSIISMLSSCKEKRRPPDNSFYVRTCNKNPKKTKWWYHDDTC
UniProt P60604: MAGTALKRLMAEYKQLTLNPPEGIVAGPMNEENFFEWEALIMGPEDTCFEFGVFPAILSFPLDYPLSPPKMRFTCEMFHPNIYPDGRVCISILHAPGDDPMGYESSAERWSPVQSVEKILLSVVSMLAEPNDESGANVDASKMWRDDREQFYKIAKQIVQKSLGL
UniProt Q9BRA2: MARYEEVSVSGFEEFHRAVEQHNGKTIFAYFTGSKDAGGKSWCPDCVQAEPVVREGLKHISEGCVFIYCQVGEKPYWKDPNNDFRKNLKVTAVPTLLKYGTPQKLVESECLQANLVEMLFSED
UniProt O94888: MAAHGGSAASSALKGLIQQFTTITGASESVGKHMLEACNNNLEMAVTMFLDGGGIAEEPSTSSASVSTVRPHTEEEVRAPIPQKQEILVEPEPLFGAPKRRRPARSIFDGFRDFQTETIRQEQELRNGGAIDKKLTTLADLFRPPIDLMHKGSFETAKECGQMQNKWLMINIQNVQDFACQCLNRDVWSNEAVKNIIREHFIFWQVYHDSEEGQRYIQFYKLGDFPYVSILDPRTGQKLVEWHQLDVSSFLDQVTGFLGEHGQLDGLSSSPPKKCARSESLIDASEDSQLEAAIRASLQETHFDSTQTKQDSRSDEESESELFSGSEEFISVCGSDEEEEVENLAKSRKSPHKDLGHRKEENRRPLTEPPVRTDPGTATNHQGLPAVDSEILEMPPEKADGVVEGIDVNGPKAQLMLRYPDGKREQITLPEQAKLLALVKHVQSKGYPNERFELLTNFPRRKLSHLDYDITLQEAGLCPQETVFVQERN
UniProt Q969T4: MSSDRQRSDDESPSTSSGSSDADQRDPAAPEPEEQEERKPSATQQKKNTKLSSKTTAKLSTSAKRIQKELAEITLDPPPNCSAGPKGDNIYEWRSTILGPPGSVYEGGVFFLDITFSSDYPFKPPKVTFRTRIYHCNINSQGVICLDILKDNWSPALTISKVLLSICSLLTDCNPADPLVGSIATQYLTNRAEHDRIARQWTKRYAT
UniProt Q9Y5Z9: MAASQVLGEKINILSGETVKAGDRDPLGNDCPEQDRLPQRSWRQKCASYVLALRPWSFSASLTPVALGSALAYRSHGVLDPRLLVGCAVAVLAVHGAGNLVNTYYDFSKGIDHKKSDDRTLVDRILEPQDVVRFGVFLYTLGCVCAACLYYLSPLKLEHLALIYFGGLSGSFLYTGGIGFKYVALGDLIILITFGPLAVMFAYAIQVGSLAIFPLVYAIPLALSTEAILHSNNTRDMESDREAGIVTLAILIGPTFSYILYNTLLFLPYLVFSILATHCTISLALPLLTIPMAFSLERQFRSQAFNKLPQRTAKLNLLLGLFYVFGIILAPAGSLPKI
UniProt Q9UMX0, whole entry, looked up: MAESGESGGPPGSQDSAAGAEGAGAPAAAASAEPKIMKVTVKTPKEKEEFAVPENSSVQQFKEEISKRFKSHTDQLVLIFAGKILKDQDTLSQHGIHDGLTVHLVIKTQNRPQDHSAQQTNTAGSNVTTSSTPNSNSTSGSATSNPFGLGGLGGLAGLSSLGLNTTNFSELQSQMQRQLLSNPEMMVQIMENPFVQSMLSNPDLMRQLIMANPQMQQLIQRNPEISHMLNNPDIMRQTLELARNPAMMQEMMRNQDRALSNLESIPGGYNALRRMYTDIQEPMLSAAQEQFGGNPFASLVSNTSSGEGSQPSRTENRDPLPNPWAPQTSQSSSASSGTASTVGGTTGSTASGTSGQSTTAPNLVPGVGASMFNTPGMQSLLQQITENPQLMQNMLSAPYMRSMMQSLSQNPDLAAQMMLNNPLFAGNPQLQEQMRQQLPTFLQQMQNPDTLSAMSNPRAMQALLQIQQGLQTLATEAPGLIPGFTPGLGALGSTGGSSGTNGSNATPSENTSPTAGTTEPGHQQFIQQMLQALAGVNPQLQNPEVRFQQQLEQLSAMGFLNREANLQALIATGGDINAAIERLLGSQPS
UniProt P68543: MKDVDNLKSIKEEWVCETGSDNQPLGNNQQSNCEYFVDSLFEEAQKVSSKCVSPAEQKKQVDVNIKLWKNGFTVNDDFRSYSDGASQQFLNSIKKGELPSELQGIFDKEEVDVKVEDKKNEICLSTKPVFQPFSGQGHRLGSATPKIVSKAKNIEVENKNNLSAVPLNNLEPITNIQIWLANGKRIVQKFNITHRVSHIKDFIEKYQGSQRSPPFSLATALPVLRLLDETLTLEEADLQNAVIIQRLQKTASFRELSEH
UniProt Q8N2K1: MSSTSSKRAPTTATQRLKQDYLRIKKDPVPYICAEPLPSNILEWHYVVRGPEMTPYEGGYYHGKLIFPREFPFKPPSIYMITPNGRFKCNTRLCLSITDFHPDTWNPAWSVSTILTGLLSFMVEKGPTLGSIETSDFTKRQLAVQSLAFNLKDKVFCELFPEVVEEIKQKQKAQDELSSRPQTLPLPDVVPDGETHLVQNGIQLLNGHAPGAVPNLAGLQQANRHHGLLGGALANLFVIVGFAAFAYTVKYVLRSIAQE
UniProt Q9H6E5: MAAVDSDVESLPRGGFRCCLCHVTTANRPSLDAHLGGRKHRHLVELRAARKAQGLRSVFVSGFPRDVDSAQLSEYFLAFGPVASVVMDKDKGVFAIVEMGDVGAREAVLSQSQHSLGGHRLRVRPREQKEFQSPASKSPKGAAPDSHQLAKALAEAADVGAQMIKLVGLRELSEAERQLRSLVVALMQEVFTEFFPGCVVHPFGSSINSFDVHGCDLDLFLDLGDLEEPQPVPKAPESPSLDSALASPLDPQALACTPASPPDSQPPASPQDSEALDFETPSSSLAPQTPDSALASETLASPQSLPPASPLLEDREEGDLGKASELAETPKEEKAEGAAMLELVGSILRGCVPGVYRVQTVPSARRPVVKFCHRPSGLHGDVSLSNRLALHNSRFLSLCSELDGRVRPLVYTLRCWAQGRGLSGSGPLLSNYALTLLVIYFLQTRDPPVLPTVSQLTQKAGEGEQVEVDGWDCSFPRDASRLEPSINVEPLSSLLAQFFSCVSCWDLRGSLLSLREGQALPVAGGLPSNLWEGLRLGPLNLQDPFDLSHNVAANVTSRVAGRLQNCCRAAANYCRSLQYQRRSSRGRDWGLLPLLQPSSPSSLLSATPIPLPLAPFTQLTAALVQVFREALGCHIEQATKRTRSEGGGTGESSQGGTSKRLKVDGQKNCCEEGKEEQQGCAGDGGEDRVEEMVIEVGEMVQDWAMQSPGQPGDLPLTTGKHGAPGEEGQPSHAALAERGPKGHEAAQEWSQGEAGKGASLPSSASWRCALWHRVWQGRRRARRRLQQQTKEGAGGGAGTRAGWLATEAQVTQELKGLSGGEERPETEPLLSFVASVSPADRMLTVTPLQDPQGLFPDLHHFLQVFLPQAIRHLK
UniProt P61086: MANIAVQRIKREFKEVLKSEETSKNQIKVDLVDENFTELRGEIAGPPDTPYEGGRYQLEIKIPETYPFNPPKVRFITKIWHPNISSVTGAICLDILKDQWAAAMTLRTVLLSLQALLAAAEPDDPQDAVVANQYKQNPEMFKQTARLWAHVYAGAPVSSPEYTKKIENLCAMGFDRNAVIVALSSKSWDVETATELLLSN
UniProt Q9NNW7, whole entry, looked up: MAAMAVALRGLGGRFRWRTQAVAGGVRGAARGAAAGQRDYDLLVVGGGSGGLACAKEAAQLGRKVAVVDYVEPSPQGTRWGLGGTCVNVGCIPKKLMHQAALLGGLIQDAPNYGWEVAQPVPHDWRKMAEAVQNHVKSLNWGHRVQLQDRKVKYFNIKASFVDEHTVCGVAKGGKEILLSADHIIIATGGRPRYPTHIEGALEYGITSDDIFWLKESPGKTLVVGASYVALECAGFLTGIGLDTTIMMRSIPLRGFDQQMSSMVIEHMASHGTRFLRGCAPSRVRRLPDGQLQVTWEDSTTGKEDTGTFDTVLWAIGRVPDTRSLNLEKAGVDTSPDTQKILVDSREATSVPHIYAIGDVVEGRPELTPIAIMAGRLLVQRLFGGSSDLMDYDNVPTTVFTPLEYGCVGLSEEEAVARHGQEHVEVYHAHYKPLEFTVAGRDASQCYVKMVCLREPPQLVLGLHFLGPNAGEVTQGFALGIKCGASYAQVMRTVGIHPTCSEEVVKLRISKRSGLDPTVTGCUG
UniProt P11441: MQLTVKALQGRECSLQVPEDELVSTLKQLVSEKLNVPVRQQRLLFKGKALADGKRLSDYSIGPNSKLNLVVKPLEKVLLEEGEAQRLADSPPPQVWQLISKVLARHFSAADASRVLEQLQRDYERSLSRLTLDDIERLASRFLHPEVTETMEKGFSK

The list shows a part of the results.

Compound in this test: CCCS(=O)(=O)Nc1ccc(F)c(C(=O)c2c[nH]c3ncc(-c4ccc(Cl)cc4)cc23)c1F [vemurafenib]
Briefly: log2 fold change, soluble protein after heating vs DMSO (PISA); higher = thermal stabilisation; K562 lysate, 10 uM; active = over 0.2 and 3.5 SD of the protein, either way, in both replicates (recomputed). Summed up: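 The values are log-two fold changes in thermal stability compared with solvent controls and come from duplicates. They were obtained by TMTpro 16plex LC-MS/MS, with channel sums equalised, on the supernatant after 21,000xg for 90 min. That supernatant came from crude K562 extract at 1 mg/mL protein treated with 10 μM compound for 30 min, heated for 3 min across 48°C-58°C, pooled and brought to 0.5% NP-40 at 4°C.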
For TUBB2A (UniProt Q13885), the log2 fold change was inactive: -0.001. With UBE2D1 (UniProt P51668), the log2 fold change is inactive: -0.013. The figure for TUBB4A (UniProt M0QYM7) is inactive: 0.019; for UBN1 (UniProt Q9NPG3) it is inactive: -0.053; for TUBA3C (UniProt P0DPH7) it is inactive: 0.037. Turning to UBE2W isoform 3 (UniProt Q96B02), the log2 fold change is inactive: -0.013. The figure for UBE2G2 (UniProt P60604) is inactive: -0.08. For UBE2I (UniProt H3BQQ9) the value was inactive: 0.128. On to TXNDC17 (UniProt Q9BRA2), for which the log2 fold change is inactive: -0.021.

For the target UBE3B (UniProt Q7Z3V4), the log2 fold change is inactive: 0.102. With UBXN7 (UniProt O94888), the log2 fold change is inactive: 0.01. On to UBA5 (UniProt Q9GZZ9), for which the log2 fold change is inactive: -0.058. The figure for UBE2F isoform 2 (UniProt Q969M7) is inactive: -0.004. In the case of UCK2 (UniProt Q9BZX2), the log2 fold change is inactive: 0.027. For UBE3A (UniProt Q05086) the value was inactive: 0.038; for UBE2E3 (UniProt Q969T4), inactive: 0.106. The figure for UBIAD1 (UniProt Q9Y5Z9) is inactive: -0.004; for U2AF2 (UniProt K7ELP8) it is inactive: -0.206. With UBQLN1 isoform 2 (UniProt Q9UMX0), the log2 fold change is inactive: -0.108. UBE2N (UniProt P61088): the log2 fold change was inactive: 0.006. For UBR4 isoform 4 (UniProt Q5T4S7), the log2 fold change was inactive: 0.02. Take UBR4 (UniProt Q5T4S7): the log2 fold change was inactive: -0.003. As for UBXN2A (UniProt P68543), the log2 fold change is inactive: -0.016. Consider UBE2J2 (UniProt Q8N2K1), for which the log2 fold change was inactive: 0.17. Consider TUFM (UniProt P49411), for which the log2 fold change is inactive: 0.021.

With UBE2K (UniProt D6RDM7), the log2 fold change was inactive: 0.13. For the target TUT1 (UniProt Q9H6E5), the log2 fold change was inactive: 0.004.

For the target TUBB6 (UniProt K7ES63), the log2 fold change is inactive: 0.072.

Regarding UBE2K (UniProt P61086), the log2 fold change is inactive: -0.005. For TXNRD2 (UniProt Q9NNW7), the log2 fold change is inactive: -0.004.

Take UBL4A (UniProt P11441): the log2 fold change was inactive: -0.032.

As for U2AF1 isoform 2 (UniProt Q01081), the log2 fold change is inactive: 0.007. On to TXNDC16 (UniProt Q9P2K2), for which the log2 fold change was inactive: -0.06. The figure for UBAP2L (UniProt F8W726) is inactive: 0.094.
